# Source: the supplement of paper PMC8728848
# The list shows a part of the results.
# B1: PEB1 (Campylobacter jejuni), Q0P9X8 (protein)
# chain: MVFRKSLLKLAVFALGACVAFSNANAAEGKLESIKSKGQLIVGVKNDVPHYALLDQATGEIKGFEVDVAKLLAKSILGDDKKIKLVAVNAKTRGPLLDNGSVDAVIATFTITPERKRIYNFSEPYYQDAIGLLVLKEKKYKSLADMKGANIGVAQAATTKKAIGEAAKKIGIDVKFSEFPDYPSIKAALDAKRVDAFSVDKSILLGYVDDKSEILPDSFEPQSYGIVTKKDDPAFAKYVDDFVKEHKNEIDALAKKWGL
# Key:
# Assay in all cases: glycan array binding signal (z-score within array); higher = stronger binding
# Details in all cases: glycan notation: IUPAC condensed, linker removed
# [1] = target: Fuc(a1-2)[Gal(a1-3)]Gal
# How it was run: (§1)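 Glycan array binding is given as a within-array Z-score, which can be read as non-binding when negative. The arrays, 3228 of them, came from the Consortium for Functional Glycomics database and were retained only where the protein sequence was available. Z-scores were averaged across arrays of the same protein sequence at different concentrations or buffers and across linkers.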
# [2] = target: Fuc(a1-2)[Gal(a1-3)]Gal(b1-3)GlcNAc
# How it was run: as §1
# [3] = target: Fuc(a1-2)[Gal(a1-3)]Gal(b1-3)GlcNAc(b1-2)Man(a1-3)[Fuc(a1-2)[Gal(a1-3)]Gal(b1-3)GlcNAc(b1-2)Man(a1-6)]Man(b1-4)GlcNAc(b1-4)GlcNAc
# How it was run: as §1
# [4] = target: Fuc(a1-2)[Gal(a1-3)]Gal(b1-4)Glc
# How it was run: as §1
# [5] = target: Fuc(a1-2)[Gal(a1-3)]Gal(b1-4)GlcNAc
# How it was run: as §1
# [6] = target: Fuc(a1-2)[Gal(a1-3)]Gal(b1-4)GlcNAc(b1-2)Man(a1-3)[Fuc(a1-2)[Gal(a1-3)]Gal(b1-4)GlcNAc(b1-2)Man(a1-6)]Man(b1-4)GlcNAc(b1-4)GlcNAc
# How it was run: as §1
# [7] = target: Fuc(a1-2)[Gal(a1-3)]Gal(b1-4)[Fuc(a1-3)]GlcNAc
# How it was run: as §1
# [8] = target: Fuc(a1-2)[Gal(a1-4)]Gal(b1-4)GlcNAc
# How it was run: as §1
# [9] = target: Fuc(a1-2)[GalNAc(a1-3)]Gal
# How it was run: as §1
# [10] = target: Fuc(a1-2)[GalNAc(a1-3)]Gal(b1-3)GalNAc(a1-3)[Fuc(a1-2)]Gal(b1-4)GlcNAc
# How it was run: as §1
# [11] = target: Fuc(a1-2)[GalNAc(a1-3)]Gal(b1-3)GlcNAc
# How it was run: as §1
# [12] = target: Fuc(a1-2)[GalNAc(a1-3)]Gal(b1-3)GlcNAc(b1-2)Man(a1-3)[Fuc(a1-2)[GalNAc(a1-3)]Gal(b1-3)GlcNAc(b1-2)Man(a1-6)]Man(b1-4)GlcNAc(b1-4)GlcNAc
# How it was run: as §1
# [13] = target: Fuc(a1-2)[GalNAc(a1-3)]Gal(b1-4)Glc
# How it was run: as §1
# [14] = target: Fuc(a1-2)[GalNAc(a1-3)]Gal(b1-4)GlcNAc
# How it was run: as §1
# [15] = target: Fuc(a1-2)[GalNAc(a1-3)]Gal(b1-4)GlcNAc(b1-2)Man(a1-3)[Fuc(a1-2)[GalNAc(a1-3)]Gal(b1-4)GlcNAc(b1-2)Man(a1-6)]Man(b1-4)GlcNAc(b1-4)GlcNAc
# How it was run: as §1
# [16] = target: Fuc(a1-2)[GalNAc(a1-3)]Gal(b1-4)GlcNAc(b1-3)Gal(b1-4)GlcNAc
# How it was run: as §1
# [17] = target: Fuc(a1-2)[GalNAc(a1-3)]Gal(b1-4)GlcNAc(b1-3)Gal(b1-4)GlcNAc(b1-3)Gal(b1-4)GlcNAc
# How it was run: as §1
# [18] = target: Fuc(a1-2)[GalNAc(a1-3)]Gal(b1-4)[Fuc(a1-3)]GlcNAc
# How it was run: as §1
# [19] = target: Fuc(a1-2)[GalNAc(a1-4)]Gal(b1-4)GlcNAc
# How it was run: as §1
# [20] = target: Fuc(a1-2)[GalNAc(b1-3)]Gal
# How it was run: as §1
# [21] = target: Fuc(a1-3)GlcNAc
# How it was run: as §1
# [22] = target: Fuc(a1-3)[Gal(b1-4)]Glc6S
# How it was run: as §1
# [23] = target: Fuc(a1-3)[Gal(b1-4)]GlcNAc
# How it was run: as §1
# [24] = target: Fuc(a1-3)[Gal(b1-4)]GlcNAc(b1-2)Man(a1-3)[Fuc(a1-3)[Gal(b1-4)]GlcNAc(b1-2)Man(a1-6)]Man(b1-4)GlcNAc(b1-4)GlcNAc
# How it was run: as §1
# [25] = target: Fuc(a1-3)[Gal(b1-4)]GlcNAc(b1-3)Gal(b1-3)[Fuc(a1-4)]GlcNAc
# How it was run: as §1
# [26] = target: Fuc(a1-3)[Gal(b1-4)]GlcNAc(b1-3)GalNAc
# How it was run: as §1
# [27] = target: Fuc(a1-3)[Gal(b1-4)]GlcNAc(b1-4)Gal(b1-4)[Fuc(a1-3)]GlcNAc
# How it was run: as §1
# [28] = target: Fuc(a1-3)[Gal(b1-4)]GlcNAc(b1-4)Gal(b1-4)[Fuc(a1-3)]GlcNAc(b1-4)Gal(b1-4)[Fuc(a1-3)]GlcNAc
# How it was run: as §1
# [29] = target: Fuc(a1-3)[Gal(b1-4)]GlcNAc(b1-6)[Gal(b1-3)GlcNAc(b1-3)]Gal(b1-4)Glc
# How it was run: as §1
# [30] = target: Fuc(a1-3)[Gal(b1-4)]GlcNAc6S
# How it was run: as §1
# [31] = target: Fuc(a1-3)[Gal3S(b1-4)]GlcNAc
# How it was run: as §1
# [32] = target: Fuc(a1-3)[Gal3S(b1-4)]GlcNAc6S
# How it was run: as §1
# [33] = target: Fuc(a1-3)[GalNAc(b1-4)]GlcNAc
# How it was run: as §1
# [34] = target: Fuc(a1-4)GlcNAc
# How it was run: as §1
# [35] = target: Fuc(b1-3)GlcNAc
# How it was run: as §1
# [36] = target: Gal(a1-2)Gal
# How it was run: as §1
# [37] = target: Gal(a1-3)Gal
# How it was run: as §1
binder,measurement,setting,value
B1,glycan array binding signal (z-score),[1],-0.027
same,glycan array binding signal (z-score),[2],-0.148
same,glycan array binding signal (z-score),[3],-0.314
same,glycan array binding signal (z-score),[4],-0.633
same,glycan array binding signal (z-score),[5],-0.033
same,glycan array binding signal (z-score),[6],0.417
same,glycan array binding signal (z-score),[7],2.02
same,glycan array binding signal (z-score),[8],-1.44
same,glycan array binding signal (z-score),[9],0.441
same,glycan array binding signal (z-score),[10],-1.22
same,glycan array binding signal (z-score),[11],0.489
same,glycan array binding signal (z-score),[12],0.517
same,glycan array binding signal (z-score),[13],-0.967
same,glycan array binding signal (z-score),[14],-0.117
same,glycan array binding signal (z-score),[15],1.37
same,glycan array binding signal (z-score),[16],0.63
same,glycan array binding signal (z-score),[17],-1.11
same,glycan array binding signal (z-score),[18],-0.141
same,glycan array binding signal (z-score),[19],-0.592
same,glycan array binding signal (z-score),[20],-0.799
same,glycan array binding signal (z-score),[21],-0.959
same,glycan array binding signal (z-score),[22],0.801
same,glycan array binding signal (z-score),[23],-0.112
same,glycan array binding signal (z-score),[24],-0.842
same,glycan array binding signal (z-score),[25],0.704
same,glycan array binding signal (z-score),[26],-0.283
same,glycan array binding signal (z-score),[27],0.229
same,glycan array binding signal (z-score),[28],-1.26
same,glycan array binding signal (z-score),[29],-0.056
same,glycan array binding signal (z-score),[30],-0.15
same,glycan array binding signal (z-score),[31],-0.081
same,glycan array binding signal (z-score),[32],0.282
same,glycan array binding signal (z-score),[33],-0.9
same,glycan array binding signal (z-score),[34],-0.227
same,glycan array binding signal (z-score),[35],-1.36
same,glycan array binding signal (z-score),[36],0.338
same,glycan array binding signal (z-score),[37],0.007
